# Data from PubChem BioAssay AID192 (DTP/NCI, 2004).
# The list shows only some results of the screen, not a fair sample: it gathers tests that were run many times, whatever their T/C, doses with no T/C, and many T/C values between a quarter and a half above the control. Other doses and runs of a compound stand elsewhere. T/C gives the treated animals as a percentage of the vehicle group. Some doses have a count of surviving animals in place of a T/C: the source holds a T/C of zero for them, seemingly a mark for toxic or unscored doses. Some doses without a T/C left all or most animals alive at the check, yet need not have been tolerated: the source hardly ever lists a survival T/C far under the control, and the zero likely stands for such cases as well. Survivors were counted at the toxicity check, usually on the fifth day, unless a day is given; later deaths do not show. Schedules are NCI's codes, taken here to give the interval after Q, in days (D) or hours (H), and the number of doses after X. Some entries were tested several times; their values stand side by side, smallest first. Some molecules as drawn cover several salts, stereoisomers or complexes of the source; a dose is that of the sample tested. For survival time, the PubChem record calls one and a half times the control and up active, and a quarter to a half above the control has no call in these data; cut-offs in other NCI protocols can differ. Some T/C values are followed by the survivors on the day toxicity was checked, most often the fifth; where none is given, no animal had died by that day.
# Tested on: BDF1 mice, B16 melanoma ip, median survival T/C
# Assay: NCI In Vivo Anticancer Drug Screen. Data for tumor model B16 Melanoma (intraperitoneal) in B6D2F1 (BDF1) mice
# Conditions: T/C endpoint: median survival time, higher T/C = longer survival
# Protocol: The antitumor activity of compounds was measured in mice bearing transplantable tumors. Survival or tumor size were measured and the results are expressed as the measurement made in the treated group (T) divided by the measurement made in the vehicle treated control group (C). The tumor model used in this assay is B16 Melanoma (intraperitoneal) in B6D2F1 (BDF1) mice
# [1] = dose: 4.0 mg/kg/injection, schedule: Q01DX009 (ip), vehicle: saline
# [2] = dose: 200.0 mg/kg/injection, schedule: Q01DX009 (ip), vehicle: saline with Tween-80
# [3] = dose: 400.0 mg/kg/injection, schedule: Q01DX009 (ip), vehicle: saline with Tween-80
# [4] = dose: 50.0 mg/kg/injection, schedule: Q01DX009 (ip), vehicle: Klucel (hydroxypropylcellulose) (HPC)
# [5] = dose: 200.0 mg/kg/injection, schedule: Q01DX009 (ip), vehicle: Klucel (hydroxypropylcellulose) (HPC)
# [6] = dose: 400.0 mg/kg/injection, schedule: Q01DX009 (ip), vehicle: Klucel (hydroxypropylcellulose) (HPC)
# [7] = dose: 100.0 mg/kg/injection, schedule: Q01DX009 (ip), vehicle: saline with Tween-80
# [8] = dose: 50.0 mg/kg/injection, schedule: Q01DX009 (ip), vehicle: saline
# [9] = dose: 100.0 mg/kg/injection, schedule: Q01DX009 (ip), vehicle: saline
# [10] = dose: 400.0 mg/kg/injection, schedule: Q01DX009 (ip), vehicle: saline
# [11] = dose: 100.0 mg/kg/injection, schedule: Q01DX009 (ip), vehicle: Klucel (hydroxypropylcellulose) (HPC)
# [12] = dose: 25.0 mg/kg/injection, schedule: Q01DX009 (ip), vehicle: saline
# [13] = dose: 200.0 mg/kg/injection, schedule: Q04DX003 (ip), vehicle: Klucel (hydroxypropylcellulose) (HPC)
compound,measurement,setting,value
CCCCCCCCCCCCCCCC(=O)N(C/C=C/CN(CCCN(C)C)C(=O)CCCCCCCCCCCCCCC)CCCN(C)C,survivor count,"dose: 0.39 mg/kg/injection, schedule: Q01DX009 (ip), vehicle: saline",10 of 10
same,survivor count,"dose: 0.78 mg/kg/injection, schedule: Q01DX009 (ip), vehicle: saline",10 of 10
same,survivor count,"dose: 1.56 mg/kg/injection, schedule: Q01DX009 (ip), vehicle: saline with Tween-80",10 of 10
same,survivor count,"dose: 50.0 mg/kg/injection, schedule: Q01DX009 (ip), vehicle: saline with Tween-80",4 of 10
CC(C(=O)O)C(NC(=O)OCc1ccccc1)C(=O)O (stereo not drawn),survivor count,"dose: 400.0 mg/kg/injection, schedule: Q04DX003 (ip), vehicle: other",10 of 10
CCC(C)C(=O)O[C@H]1C(=O)O[C@@H]2C[C@H]3C(C)=CC(=O)[C@@H](O)[C@]3(C)[C@H]3[C@@H](O)[C@H](O)[C@@]4(C)OC[C@]32[C@@H]14 (stereo partly drawn),T/C,"dose: 0.5 mg/kg/injection, schedule: Q01DX009 (ip), vehicle: saline",134 % of control [9 of 10 alive]
same,T/C,"dose: 1.0 mg/kg/injection, schedule: Q01DX009 (ip), vehicle: saline",145 % of control [8 of 10 alive]
same,T/C,"dose: 2.0 mg/kg/injection, schedule: Q01DX009 (ip), vehicle: saline",144 % of control
same,T/C,[1],146 % of control
O=C(Nc1ccc(C2=NCCCN2)cc1)c1ccc(C(=O)Nc2ccc(C3=NCCCN3)cc2)nc1,survivor count,"dose: 2.5 mg/kg/injection, schedule: Q01DX009 (ip), vehicle: saline with Tween-80",10 of 10
C[C@]12CC[C@H](OC3OC(CO)C(O)C(O)C3O)C[C@H]1CC[C@@H]1[C@@H]2CC[C@]2(C)[C@@H](C3=CCOC3=O)CC[C@]12O (stereo partly drawn),survivor count,[1],10 of 10
Clc1ncnc2nc[nH]c12,survivor count,[2],6 of 6
same,survivor count,"dose: 400.0 mg/kg/injection, schedule: Q01DX009 (ip), vehicle: saline sonified",5 of 6
same,survivor count,[3],3 of 6
CC1OC(OCc2ccc3c(c2)C(=O)c2ccccc2C3=O)CC(N)C1O (stereo not drawn),T/C,"dose: 25.0 mg/kg/injection, schedule: Q01DX009 (ip), vehicle: water",130 % of control
OCc1ccccc1NCc1ccccc1,survivor count,"dose: 200.0 mg/kg/injection, schedule: Q01DX009 (ip), vehicle: other",10 of 10
Cc1cc(=O)n(C)c2ccccc12,survivor count,[4],10 of 10
same,survivor count,[5],10 of 10
C=CCC(CC)C(=O)Cl (stereo not drawn),survivor count,"dose: 200.0 mg/kg/injection, schedule: Q04DX003 (ip), vehicle: other",4 of 10
O=[N+]([O-])c1ccc(N2CCC(CCCC3CCN(c4ccc([N+](=O)[O-])cc4[N+](=O)[O-])CC3)CC2)c([N+](=O)[O-])c1,survivor count,[4],9 of 10
CCCC(=O)NC1=C(N2CC2)C(=O)C(NC(=O)CCC)=C(N2CC2)C1=O,survivor count,[1],10 of 10
same,survivor count,"dose: 8.0 mg/kg/injection, schedule: Q01DX009 (ip), vehicle: saline",5 of 10
COc1cc(C(=O)N=Nc2c(O)[nH]c3ccc(Br)cc23)cc(OC)c1OC,survivor count,[5],10 of 10
same,survivor count,[6],10 of 10
NS(=O)(=O)OCCCCCCCOS(N)(=O)=O,survivor count,[7],10 of 10
same,survivor count,[2],10 of 10
same,survivor count,[3],9 of 10
Cc1ccc(NC(=O)COc2cc(Cl)c(Cl)cc2Cl)c([N+](=O)[O-])c1,survivor count,[6],10 of 10
CCCCNC(=O)Nc1ccc(C)c(Cl)c1,survivor count,"dose: 70.0 mg/kg/injection, schedule: Q01DX009 (ip), vehicle: Klucel (hydroxypropylcellulose) (HPC)",10 of 10
same,survivor count,"dose: 140.0 mg/kg/injection, schedule: Q01DX009 (ip), vehicle: Klucel (hydroxypropylcellulose) (HPC)",10 of 10
same,survivor count,"dose: 280.0 mg/kg/injection, schedule: Q01DX009 (ip), vehicle: Klucel (hydroxypropylcellulose) (HPC)",10 of 10
CNCCCN(C)CCCNC,survivor count,[8],10 of 10
same,survivor count,[9],8 of 10
C=CCNC(=O)c1ccccc1SC(C)=O,survivor count,"dose: 800.0 mg/kg/injection, schedule: Q01DX009 (ip), vehicle: saline + Tween-80 + alcohol",0 of 10
CCN(CCCCO)CCc1c[nH]c2ccc(OC)cc12,survivor count,"dose: 150.0 mg/kg/injection, schedule: Q01DX009 (ip), vehicle: saline",4 of 10
CC(=O)SCC(C)CCl (stereo not drawn),survivor count,[2],8 of 10
Nc1nc(N)nc(N)n1,survivor count,"dose: 800.0 mg/kg/injection, schedule: Q01DX009 (ip), vehicle: Klucel (hydroxypropylcellulose) (HPC)",10 of 10
same,survivor count,"dose: 1600.0 mg/kg/injection, schedule: Q01DX009 (ip), vehicle: saline with Tween-80",7 of 10
CC(C)(C)OC(=O)NC(CCC(N)=O)C(=O)O (stereo not drawn),survivor count,[10],9 of 10
CCOC(=O)NC1CCC1NC(=O)OCC (stereo not drawn),survivor count,"dose: 400.0 mg/kg/injection, schedule: Q04DX003 (ip), vehicle: saline with Tween-80",5 of 10
CC(=O)OCc1cc(=O)n(C)c2c3c4c(cc12)c(C)cc(=O)n4CO3,T/C,"dose: 6.25 mg/kg/injection, schedule: Q01DX009 (ip), vehicle: Klucel (hydroxypropylcellulose) (HPC)",126 % of control
same,T/C,"dose: 12.5 mg/kg/injection, schedule: Q01DX009 (ip), vehicle: Klucel (hydroxypropylcellulose) (HPC)",129 % of control
same,T/C,"dose: 25.0 mg/kg/injection, schedule: Q01DX009 (ip), vehicle: Klucel (hydroxypropylcellulose) (HPC)",138 % of control
same,T/C,[4],138 and 140 % of control
same,survivor count,[11],8 of 10 and 10 of 10
same,survivor count,[5],0 of 10
C[n+]1c(-c2cccc(OCCCCCCCOc3cccc(-c4c5cc(N)ccc5c5ccc(N)cc5[n+]4C)c3)c2)c2cc(N)ccc2c2ccc(N)cc21,T/C,"dose: 0.08 mg/kg/injection, schedule: Q01DX009 (ip), vehicle: water",148 % of control
same,T/C,"dose: 0.16 mg/kg/injection, schedule: Q01DX009 (ip), vehicle: water",138 % of control
same,survivor count,"dose: 0.32 mg/kg/injection, schedule: Q01DX009 (ip), vehicle: water",10 of 10
C[n+]1ccc(Nc2ccc(NC(=O)c3ccc(Nc4cc[n+](C)c5ccc(N)cc45)cc3N)cc2)cc1,survivor count,[12],6 of 6
same,survivor count,"dose: 32.0 mg/kg/injection, schedule: Q01DX009 (ip), vehicle: saline with Tween-80",10 of 10
same,survivor count,[4],7 of 10
same,survivor count,[8],6 of 6
same,survivor count,"dose: 64.0 mg/kg/injection, schedule: Q02DX009 (ip), vehicle: Klucel (hydroxypropylcellulose) (HPC)",8 of 10 and 9 of 10
same,survivor count,[11],4 of 10
same,survivor count,[9],1 of 6
[Cl][Pt+2][Cl].[NH-]CCO.[NH-]CCO,T/C,[12],132 % of control
same,survivor count,[8],8 of 8
C[n+]1cccc(NC(=O)c2ccc(NC(=O)C34CCC(C(=O)Nc5ccc(C(=O)Nc6ccc[n+](C)c6)cc5)(CC3)CC4)cc2)c1,T/C,"dose: 5.0 mg/kg/injection, schedule: Q01DX009 (ip), vehicle: saline with Tween-80",136 % of control
same,survivor count,"dose: 20.0 mg/kg/injection, schedule: Q01DX009 (ip), vehicle: saline with Tween-80",10 of 10
same,survivor count,"dose: 40.0 mg/kg/injection, schedule: Q01DX009 (ip), vehicle: saline with Tween-80",10 of 10
CC1OC2COC(C)OC2C(C(O)COC(c2ccccc2)(c2ccccc2)c2ccccc2)O1 (stereo not drawn),survivor count,[11],8 of 10
same,survivor count,[13],10 of 10
same,survivor count,[6],10 of 10
Nc1nc(N)n2c(N)nnc2n1,survivor count,[10],10 of 10
CC(=O)c1ccccc1C,survivor count,[7],10 of 10
same,survivor count,[2],0 of 10
same,survivor count,[3],0 of 10
C[N+](C)(C)CCOc1ccc(Cl)cc1,survivor count,[13],3 of 10
same,survivor count,"dose: 400.0 mg/kg/injection, schedule: Q04DX003 (ip), vehicle: Klucel (hydroxypropylcellulose) (HPC)",0 of 10
O=C(Nc1ccccc1Cl)N(Cc1ccccc1)c1ccccc1,survivor count,[11],10 of 10
same,survivor count,[5],10 of 10
same,survivor count,[6],10 of 10
